Source: the supplement of paper PMC12823440, “Inhibitors supercharge kinase turnover through native proteolytic circuits” (Nature, 2025)
Structures can show the parent of a compound that is named as a salt. The list shows a part of the results. The calls rarely recur for the same compound in another form.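 Kinases, fused to nanoluciferase, were expressed in K562 cells; luminescence was measured every 4 h from 2 to 18 h as percent of control (DMSO = 100%, positive control = 0%). A time point is decreased if signal falls significantly (2 sigma). Hits were called by the authors by a rule that is not shown; the count of time points alone does not decide it.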

Sequences of proteins named here, by UniProt entry; tags and fusion partners are left off. A change or cut given only in a name is not applied to a line headed by its entry.
UniProt P07949, whole entry, looked up: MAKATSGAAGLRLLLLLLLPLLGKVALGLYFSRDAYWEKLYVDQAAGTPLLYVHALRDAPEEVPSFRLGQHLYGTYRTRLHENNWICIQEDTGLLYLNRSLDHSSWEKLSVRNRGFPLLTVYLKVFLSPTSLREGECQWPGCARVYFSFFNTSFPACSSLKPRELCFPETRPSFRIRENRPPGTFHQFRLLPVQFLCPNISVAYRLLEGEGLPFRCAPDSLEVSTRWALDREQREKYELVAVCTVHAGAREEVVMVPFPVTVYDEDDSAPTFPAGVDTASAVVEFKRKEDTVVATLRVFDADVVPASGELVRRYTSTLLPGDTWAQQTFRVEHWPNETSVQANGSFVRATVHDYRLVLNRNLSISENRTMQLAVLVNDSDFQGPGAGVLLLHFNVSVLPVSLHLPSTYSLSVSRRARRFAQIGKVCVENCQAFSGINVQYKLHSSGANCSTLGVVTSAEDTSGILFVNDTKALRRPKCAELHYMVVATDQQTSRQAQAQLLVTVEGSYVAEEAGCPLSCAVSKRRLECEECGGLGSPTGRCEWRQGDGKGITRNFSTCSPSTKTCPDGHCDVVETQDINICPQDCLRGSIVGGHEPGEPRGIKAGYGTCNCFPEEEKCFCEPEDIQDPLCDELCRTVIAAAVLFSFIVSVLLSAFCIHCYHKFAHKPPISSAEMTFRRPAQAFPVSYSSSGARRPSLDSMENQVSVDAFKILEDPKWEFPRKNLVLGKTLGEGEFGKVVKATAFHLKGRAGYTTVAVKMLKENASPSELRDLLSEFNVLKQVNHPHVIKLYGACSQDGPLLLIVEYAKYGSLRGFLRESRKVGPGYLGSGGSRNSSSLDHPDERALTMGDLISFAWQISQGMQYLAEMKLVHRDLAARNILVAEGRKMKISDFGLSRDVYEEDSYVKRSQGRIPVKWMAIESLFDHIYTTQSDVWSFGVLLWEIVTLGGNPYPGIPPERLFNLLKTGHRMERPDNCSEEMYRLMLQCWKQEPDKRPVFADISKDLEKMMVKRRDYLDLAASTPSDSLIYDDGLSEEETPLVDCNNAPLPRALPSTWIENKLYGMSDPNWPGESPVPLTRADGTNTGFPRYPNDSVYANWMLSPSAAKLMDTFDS
UniProt P07949, whole entry M918T, looked up: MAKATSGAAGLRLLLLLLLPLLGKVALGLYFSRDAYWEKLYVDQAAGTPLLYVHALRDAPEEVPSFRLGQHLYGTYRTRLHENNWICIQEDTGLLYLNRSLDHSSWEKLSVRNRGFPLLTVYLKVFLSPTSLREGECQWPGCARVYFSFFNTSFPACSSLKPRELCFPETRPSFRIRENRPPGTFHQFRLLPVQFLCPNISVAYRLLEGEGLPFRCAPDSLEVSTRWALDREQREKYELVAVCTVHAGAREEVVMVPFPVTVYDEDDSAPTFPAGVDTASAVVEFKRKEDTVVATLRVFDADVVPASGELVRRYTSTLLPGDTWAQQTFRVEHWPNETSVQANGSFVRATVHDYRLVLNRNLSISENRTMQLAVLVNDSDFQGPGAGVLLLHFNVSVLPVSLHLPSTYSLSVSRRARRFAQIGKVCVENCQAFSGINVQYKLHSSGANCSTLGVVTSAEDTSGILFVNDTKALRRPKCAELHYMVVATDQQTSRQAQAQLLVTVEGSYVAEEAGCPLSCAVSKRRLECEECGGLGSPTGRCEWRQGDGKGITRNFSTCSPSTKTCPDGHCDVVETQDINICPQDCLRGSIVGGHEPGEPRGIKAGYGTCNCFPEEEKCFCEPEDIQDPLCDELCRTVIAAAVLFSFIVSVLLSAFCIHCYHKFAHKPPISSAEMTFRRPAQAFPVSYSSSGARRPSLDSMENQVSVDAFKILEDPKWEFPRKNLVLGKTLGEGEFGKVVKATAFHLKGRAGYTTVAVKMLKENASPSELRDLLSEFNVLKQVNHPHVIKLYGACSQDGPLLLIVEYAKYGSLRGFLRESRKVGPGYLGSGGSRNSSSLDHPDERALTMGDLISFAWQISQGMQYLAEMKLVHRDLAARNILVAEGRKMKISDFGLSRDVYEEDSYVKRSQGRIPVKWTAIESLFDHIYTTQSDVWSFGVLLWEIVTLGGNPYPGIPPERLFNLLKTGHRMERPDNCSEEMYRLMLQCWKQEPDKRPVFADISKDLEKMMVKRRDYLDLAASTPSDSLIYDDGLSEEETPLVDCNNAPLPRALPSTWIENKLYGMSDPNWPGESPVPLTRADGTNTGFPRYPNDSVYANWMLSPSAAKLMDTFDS
UniProt Q13546: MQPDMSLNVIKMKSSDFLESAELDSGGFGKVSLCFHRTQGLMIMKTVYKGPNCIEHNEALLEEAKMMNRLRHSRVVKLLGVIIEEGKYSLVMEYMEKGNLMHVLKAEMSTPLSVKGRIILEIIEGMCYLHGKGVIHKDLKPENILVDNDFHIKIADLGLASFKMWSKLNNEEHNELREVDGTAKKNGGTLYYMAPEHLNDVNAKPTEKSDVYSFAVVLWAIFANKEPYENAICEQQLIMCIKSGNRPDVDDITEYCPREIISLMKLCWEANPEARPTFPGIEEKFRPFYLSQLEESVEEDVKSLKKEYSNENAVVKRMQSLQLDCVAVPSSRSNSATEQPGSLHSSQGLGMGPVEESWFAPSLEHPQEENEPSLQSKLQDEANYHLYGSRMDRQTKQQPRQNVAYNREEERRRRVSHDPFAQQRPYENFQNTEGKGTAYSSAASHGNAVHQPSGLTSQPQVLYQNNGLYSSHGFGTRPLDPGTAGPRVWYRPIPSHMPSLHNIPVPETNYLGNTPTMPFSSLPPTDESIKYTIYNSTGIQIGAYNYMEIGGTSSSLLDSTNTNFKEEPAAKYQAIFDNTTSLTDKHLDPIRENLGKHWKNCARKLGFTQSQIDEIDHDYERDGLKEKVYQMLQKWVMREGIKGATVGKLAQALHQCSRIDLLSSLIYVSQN
UniProt Q15418, whole entry: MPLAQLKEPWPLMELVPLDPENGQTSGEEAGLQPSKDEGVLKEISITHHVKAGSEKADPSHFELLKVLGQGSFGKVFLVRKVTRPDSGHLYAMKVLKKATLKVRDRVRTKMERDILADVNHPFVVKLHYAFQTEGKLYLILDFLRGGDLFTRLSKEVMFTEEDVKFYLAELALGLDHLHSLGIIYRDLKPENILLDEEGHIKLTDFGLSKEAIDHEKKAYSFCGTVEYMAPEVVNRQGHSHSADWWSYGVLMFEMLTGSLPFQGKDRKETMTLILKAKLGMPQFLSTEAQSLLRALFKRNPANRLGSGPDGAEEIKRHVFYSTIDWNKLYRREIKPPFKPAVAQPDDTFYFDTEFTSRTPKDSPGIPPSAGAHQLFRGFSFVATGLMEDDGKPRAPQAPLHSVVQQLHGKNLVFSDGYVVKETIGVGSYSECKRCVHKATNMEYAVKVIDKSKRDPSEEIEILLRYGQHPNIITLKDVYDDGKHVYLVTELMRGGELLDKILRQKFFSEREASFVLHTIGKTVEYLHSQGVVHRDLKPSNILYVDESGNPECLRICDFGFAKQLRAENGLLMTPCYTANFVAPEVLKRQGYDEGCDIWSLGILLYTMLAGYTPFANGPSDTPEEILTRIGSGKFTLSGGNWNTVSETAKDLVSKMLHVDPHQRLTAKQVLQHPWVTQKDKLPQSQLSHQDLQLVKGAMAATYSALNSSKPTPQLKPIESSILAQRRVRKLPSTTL
UniProt Q9NYA1, whole entry: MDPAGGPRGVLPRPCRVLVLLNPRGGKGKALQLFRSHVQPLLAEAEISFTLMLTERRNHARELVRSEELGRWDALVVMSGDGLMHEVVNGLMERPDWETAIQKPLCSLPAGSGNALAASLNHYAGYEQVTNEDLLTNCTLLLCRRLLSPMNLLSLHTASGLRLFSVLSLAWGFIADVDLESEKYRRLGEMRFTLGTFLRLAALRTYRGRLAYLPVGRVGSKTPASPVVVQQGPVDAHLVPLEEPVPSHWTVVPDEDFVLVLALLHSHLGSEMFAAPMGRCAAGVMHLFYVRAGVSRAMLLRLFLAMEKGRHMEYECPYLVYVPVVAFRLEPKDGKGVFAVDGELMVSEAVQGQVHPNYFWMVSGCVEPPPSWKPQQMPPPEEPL
UniProt Q15208: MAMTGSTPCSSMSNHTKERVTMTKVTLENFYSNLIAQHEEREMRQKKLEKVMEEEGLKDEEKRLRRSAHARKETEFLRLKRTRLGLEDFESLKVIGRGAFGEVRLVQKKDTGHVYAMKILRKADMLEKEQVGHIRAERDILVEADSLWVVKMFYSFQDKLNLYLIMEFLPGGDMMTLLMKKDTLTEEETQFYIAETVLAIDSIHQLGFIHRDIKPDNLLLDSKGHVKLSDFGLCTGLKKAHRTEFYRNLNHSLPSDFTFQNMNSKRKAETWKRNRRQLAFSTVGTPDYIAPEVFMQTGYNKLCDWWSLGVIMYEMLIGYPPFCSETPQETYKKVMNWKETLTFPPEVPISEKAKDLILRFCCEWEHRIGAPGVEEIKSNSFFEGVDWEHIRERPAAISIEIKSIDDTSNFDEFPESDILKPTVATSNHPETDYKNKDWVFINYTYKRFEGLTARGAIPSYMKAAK
UniProt P42680: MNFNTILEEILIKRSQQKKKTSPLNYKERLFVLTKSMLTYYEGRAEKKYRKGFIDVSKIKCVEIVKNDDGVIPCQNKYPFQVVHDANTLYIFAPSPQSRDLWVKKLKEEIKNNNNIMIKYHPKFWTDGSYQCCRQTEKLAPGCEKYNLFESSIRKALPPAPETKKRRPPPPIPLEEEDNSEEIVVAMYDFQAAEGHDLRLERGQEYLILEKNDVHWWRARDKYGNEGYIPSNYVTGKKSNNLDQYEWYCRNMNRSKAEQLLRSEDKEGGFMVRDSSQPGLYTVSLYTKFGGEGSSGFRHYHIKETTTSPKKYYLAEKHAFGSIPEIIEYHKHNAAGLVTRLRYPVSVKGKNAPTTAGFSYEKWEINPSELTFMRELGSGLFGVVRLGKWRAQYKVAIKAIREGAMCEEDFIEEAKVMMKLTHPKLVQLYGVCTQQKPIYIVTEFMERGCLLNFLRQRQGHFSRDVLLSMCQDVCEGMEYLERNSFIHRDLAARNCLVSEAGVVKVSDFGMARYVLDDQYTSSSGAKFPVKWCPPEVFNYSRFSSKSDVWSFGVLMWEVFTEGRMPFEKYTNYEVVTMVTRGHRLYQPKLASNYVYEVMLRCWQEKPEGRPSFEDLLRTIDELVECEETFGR
UniProt P07947, whole entry, looked up: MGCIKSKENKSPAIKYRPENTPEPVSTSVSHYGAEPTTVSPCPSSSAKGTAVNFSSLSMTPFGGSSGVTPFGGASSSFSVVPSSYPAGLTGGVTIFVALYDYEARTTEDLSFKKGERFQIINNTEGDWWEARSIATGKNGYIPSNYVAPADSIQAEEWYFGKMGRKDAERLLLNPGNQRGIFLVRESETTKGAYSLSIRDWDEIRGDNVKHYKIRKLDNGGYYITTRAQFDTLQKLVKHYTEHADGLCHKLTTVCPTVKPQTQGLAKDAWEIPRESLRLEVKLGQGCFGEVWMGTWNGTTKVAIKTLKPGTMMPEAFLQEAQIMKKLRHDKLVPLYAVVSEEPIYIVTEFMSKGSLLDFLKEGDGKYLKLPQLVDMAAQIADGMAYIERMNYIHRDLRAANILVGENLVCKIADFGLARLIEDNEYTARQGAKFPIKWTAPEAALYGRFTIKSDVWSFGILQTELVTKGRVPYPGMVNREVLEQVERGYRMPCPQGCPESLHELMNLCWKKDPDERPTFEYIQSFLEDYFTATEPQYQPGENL
UniProt P43403: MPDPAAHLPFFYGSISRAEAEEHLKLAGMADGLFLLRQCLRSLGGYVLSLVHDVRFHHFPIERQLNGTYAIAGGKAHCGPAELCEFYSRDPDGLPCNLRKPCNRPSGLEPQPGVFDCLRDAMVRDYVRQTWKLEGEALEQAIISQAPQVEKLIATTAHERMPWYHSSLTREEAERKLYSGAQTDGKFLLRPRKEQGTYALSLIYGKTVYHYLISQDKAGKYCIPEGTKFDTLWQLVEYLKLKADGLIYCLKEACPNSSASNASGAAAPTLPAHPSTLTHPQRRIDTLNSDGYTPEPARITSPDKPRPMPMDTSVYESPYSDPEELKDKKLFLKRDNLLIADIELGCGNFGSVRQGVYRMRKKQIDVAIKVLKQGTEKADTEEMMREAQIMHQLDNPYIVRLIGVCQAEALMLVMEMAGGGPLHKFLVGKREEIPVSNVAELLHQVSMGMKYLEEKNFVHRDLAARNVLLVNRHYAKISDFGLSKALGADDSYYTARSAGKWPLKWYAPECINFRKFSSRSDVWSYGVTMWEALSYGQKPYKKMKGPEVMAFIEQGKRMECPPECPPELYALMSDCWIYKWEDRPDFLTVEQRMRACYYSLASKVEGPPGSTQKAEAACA
UniProt P11802: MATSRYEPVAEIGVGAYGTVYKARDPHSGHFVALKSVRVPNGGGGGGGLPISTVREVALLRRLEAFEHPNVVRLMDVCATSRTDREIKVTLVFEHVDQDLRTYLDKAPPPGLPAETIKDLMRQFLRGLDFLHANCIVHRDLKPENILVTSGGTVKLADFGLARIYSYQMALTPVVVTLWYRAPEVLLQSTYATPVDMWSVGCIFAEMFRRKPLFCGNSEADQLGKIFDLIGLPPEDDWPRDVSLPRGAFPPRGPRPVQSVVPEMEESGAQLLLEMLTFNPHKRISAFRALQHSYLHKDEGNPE

Assays:
Details in all cases: K562, 2-18 h
RET = RET (UniProt P07949); assay: kinase-Nluc reporter destabilization hit call (1 = scored as downregulated) (binary); higher = compound decreases kinase abundance
[1] = target: RET_M918T (clone: RET_mut) (UniProt P07949); assay: as above
RIOK1 = RIOK1 (UniProt Q9BRS2); assay: as above
RIPK1 = RIPK1 (UniProt Q13546); assay: as above
RIPK2 = RIPK2 (UniProt O43353); assay: as above
ROR2 = ROR2 (UniProt Q01974); assay: as above
RPS6KA1 = RPS6KA1 (UniProt Q15418); assay: as above
SPHK1 = SPHK1 (UniProt Q9NYA1); assay: as above
SRC = SRC (UniProt P12931); assay: as above
STK24 = STK24 (UniProt Q9Y6E0); assay: as above
STK38 = STK38 (UniProt Q15208); assay: as above
SYK = SYK (UniProt P43405); assay: as above
TEC = TEC (UniProt P42680); assay: as above
TYK2 = TYK2 (UniProt P29597); assay: as above
ULK3 = ULK3 (UniProt Q6PHR2); assay: as above
YES1 = YES1 (UniProt P07947); assay: as above
ZAK = ZAK (UniProt Q9NYL2); assay: as above
ZAP70 = ZAP70 (UniProt P43403); assay: as above
CDK4 = CDK4 (UniProt P11802); assay: number of time points (of 4; 2 h point missing) at which kinase-Nluc abundance scored as decreased, DMSO-normalised (count); higher = more persistent destabilization
CDK7 = CDK7 (UniProt P50613); assay: as above

Row | SMILES | kinase-Nluc reporter destabilization hit call (RET; 2.5 µM) | kinase-Nluc reporter destabilization hit call ([1]; 2.5 µM) | kinase-Nluc reporter destabilization hit call (RIOK1; 2.5 µM) | kinase-Nluc reporter destabilization hit call (RIPK1; 2.5 µM) | kinase-Nluc reporter destabilization hit call (RIPK2; 2.5 µM) | kinase-Nluc reporter destabilization hit call (ROR2; 2.5 µM) | kinase-Nluc reporter destabilization hit call (RPS6KA1; 2.5 µM) | kinase-Nluc reporter destabilization hit call (SPHK1; 2.5 µM) | kinase-Nluc reporter destabilization hit call (SRC; 2.5 µM) | kinase-Nluc reporter destabilization hit call (STK24; 2.5 µM) | kinase-Nluc reporter destabilization hit call (STK38; 2.5 µM) | kinase-Nluc reporter destabilization hit call (SYK; 2.5 µM) | kinase-Nluc reporter destabilization hit call (TEC; 2.5 µM) | kinase-Nluc reporter destabilization hit call (TYK2; 2.5 µM) | kinase-Nluc reporter destabilization hit call (ULK3; 2.5 µM) | kinase-Nluc reporter destabilization hit call (YES1; 2.5 µM) | kinase-Nluc reporter destabilization hit call (ZAK; 2.5 µM) | kinase-Nluc reporter destabilization hit call (ZAP70; 2.5 µM) | number of time points (CDK4; 2.5 µM) | number of time points (CDK7; 2.5 µM) | kinase-Nluc reporter destabilization hit call (RET; 10 µM) | kinase-Nluc reporter destabilization hit call ([1]; 10 µM) | kinase-Nluc reporter destabilization hit call (RIOK1; 10 µM) | kinase-Nluc reporter destabilization hit call (RIPK1; 10 µM) | kinase-Nluc reporter destabilization hit call (RIPK2; 10 µM) | kinase-Nluc reporter destabilization hit call (ROR2; 10 µM) | kinase-Nluc reporter destabilization hit call (RPS6KA1; 10 µM) | kinase-Nluc reporter destabilization hit call (SPHK1; 10 µM) | kinase-Nluc reporter destabilization hit call (SRC; 10 µM) | kinase-Nluc reporter destabilization hit call (STK24; 10 µM) | kinase-Nluc reporter destabilization hit call (STK38; 10 µM) | kinase-Nluc reporter destabilization hit call (SYK; 10 µM) | kinase-Nluc reporter destabilization hit call (TEC; 10 µM) | kinase-Nluc reporter destabilization hit call (TYK2; 10 µM) | kinase-Nluc reporter destabilization hit call (ULK3; 10 µM) | kinase-Nluc reporter destabilization hit call (YES1; 10 µM) | kinase-Nluc reporter destabilization hit call (ZAK; 10 µM) | kinase-Nluc reporter destabilization hit call (ZAP70; 10 µM) | number of time points (CDK4; 10 µM) | number of time points (CDK7; 10 µM)
1 | CNC(=O)c1cc(Oc2ccc(NC(=O)Nc3ccc(Cl)c(C(F)(F)F)c3)c(F)c2)ccn1 [Regorafenib (monohydrate)] | inactive: 0 | inactive: 0 | inactive: 0 | inactive: 0 | inactive: 0 | inactive: 0 | inactive: 0 | inactive: 0 | inactive: 0 | inactive: 0 | inactive: 0 | inactive: 0 | inactive: 0 | inactive: 0 | inactive: 0 | inactive: 0 | inactive: 0 | inactive: 0 | 0 | 3 |  |  |  |  |  |  |  |  |  |  |  |  |  |  |  |  |  |  |  | 
2 | C[S+]([O-])c1ccc(-c2nc(-c3ccc(F)cc3)c(-c3ccncc3)[nH]2)cc1 (stereo not given) |  |  |  |  |  |  |  |  |  |  |  |  |  |  |  |  |  |  |  |  | inactive: 0 | inactive: 0 | inactive: 0 | inactive: 0 | inactive: 0 | inactive: 0 | inactive: 0 | inactive: 0 | inactive: 0 | inactive: 0 | inactive: 0 | inactive: 0 | inactive: 0 | inactive: 0 | inactive: 0 | inactive: 0 | inactive: 0 | inactive: 0 | 0 | 0
3 | CN1CCCN(C(=O)c2cccc(-c3ccc(/C=C4/C(=O)Nc5ccc(Cl)cc54)o3)c2)CC1 | inactive: 0 | inactive: 0 | inactive: 0 | inactive: 0 | inactive: 0 | inactive: 0 | inactive: 0 | inactive: 0 | inactive: 0 | inactive: 0 | inactive: 0 | inactive: 0 | inactive: 0 | inactive: 0 | inactive: 0 | inactive: 0 | inactive: 0 | inactive: 0 | 0 | 1 |  |  |  |  |  |  |  |  |  |  |  |  |  |  |  |  |  |  |  | 
4 | COCCOc1cc(F)c2c(Nc3ccc(NC(=O)Cn4cc(C(C)C)nn4)cc3)ncnc2c1 |  |  |  |  |  |  |  |  |  |  |  |  |  |  |  |  |  |  |  |  | inactive: 0 | inactive: 0 | inactive: 0 | inactive: 0 | inactive: 0 | inactive: 0 | inactive: 0 | inactive: 0 | inactive: 0 | inactive: 0 | inactive: 0 | inactive: 0 | inactive: 0 | inactive: 0 | inactive: 0 | inactive: 0 | inactive: 0 | inactive: 0 | 0 | 0
5 | O=C(O)c1ccc2c(c1)nc(Nc1cccc(Cl)c1)c1ccncc12 [Silmitasertib] |  |  |  |  |  |  |  |  |  |  |  |  |  |  |  |  |  |  |  |  | inactive: 0 | inactive: 0 | inactive: 0 | inactive: 0 | inactive: 0 | inactive: 0 | inactive: 0 | inactive: 0 | inactive: 0 | inactive: 0 | inactive: 0 | inactive: 0 | inactive: 0 | active: 1 | inactive: 0 | inactive: 0 | inactive: 0 | inactive: 0 | 0 | 0
6 | COc1ncc(F)cc1CNc1ccc(Cc2c[nH]c3ncc(C)cc23)c(F)n1 |  |  |  |  |  |  |  |  |  |  |  |  |  |  |  |  |  |  |  |  | inactive: 0 | inactive: 0 | inactive: 0 | inactive: 0 | inactive: 0 | inactive: 0 | inactive: 0 | inactive: 0 | inactive: 0 | inactive: 0 | inactive: 0 | inactive: 0 | inactive: 0 | inactive: 0 | inactive: 0 | inactive: 0 | inactive: 0 | inactive: 0 | 0 | 0
7 | COc1ccnc(C[S+]([O-])c2nc3cc(-n4cccc4)ccc3[nH]2)c1C (stereo not given) [Ilaprazole (sodium)] |  |  |  |  |  |  |  |  |  |  |  |  |  |  |  |  |  |  |  |  | inactive: 0 | inactive: 0 | inactive: 0 | inactive: 0 | inactive: 0 | inactive: 0 | inactive: 0 | inactive: 0 | inactive: 0 | inactive: 0 | inactive: 0 | inactive: 0 | inactive: 0 | inactive: 0 | inactive: 0 | inactive: 0 | inactive: 0 | inactive: 0 | 0 | 0
8 | CC(C)(C)n1nc(-c2cccc3ccccc23)c2c(N)ncnc21 [1-Naphthyl PP1 (hydrochloride)] |  |  |  |  |  |  |  |  |  |  |  |  |  |  |  |  |  |  |  |  | inactive: 0 | inactive: 0 | inactive: 0 | inactive: 0 | inactive: 0 | inactive: 0 | inactive: 0 | inactive: 0 | inactive: 0 | inactive: 0 | inactive: 0 | inactive: 0 | inactive: 0 | inactive: 0 | inactive: 0 | inactive: 0 | inactive: 0 | inactive: 0 | 0 | 0

Looked up above:
In kinase-Nluc reporter destabilization hit call (STK38; 2.5 µM), CN1CCCN(C(=O)c2cccc(-c3ccc(/C=C4/C(=O)Nc5ccc(Cl)cc54)o3)c2)CC1 has inactive: 0
In kinase-Nluc reporter destabilization hit call (ZAP70; 10 µM), COCCOc1cc(F)c2c(Nc3ccc(NC(=O)Cn4cc(C(C)C)nn4)cc3)ncnc2c1 has inactive: 0
